Results are given in words; binding and its absence hold for the method and conditions named. Some binding calls cover weakened binding; strength is not graded here.
Legend:
[1] = biological target: CD47 on human T lymphocyte leukemia Jurkat cells (human) (UniProt Q08722); test: flow cytometry (FACS) on Jurkat cells, PE anti-human Fc
[2] = biological target: CD47 on human T lymphocyte leukemia Jurkat cells (human) (UniProt Q08722); test: FACS on Jurkat cells, PE-labeled anti-human Fc secondary antibody; MFI(Mean) against Con(nM)
[3] = biological target: CD47 on human red blood cells (human) (UniProt Q08722); test: flow cytometry (FACS) on human red blood cells, PE anti-human Fc
[4] = biological target: CD47 on human red blood cells (human) (UniProt Q08722); test: FACS on human red blood cells, PE-labeled anti-human Fc secondary antibody; MFI(Mean) against Con(nM)

By UniProt entry, the sequences of proteins in these tests, tags left out. Residues count along the entry.
UniProt Q08722, residues 19-323: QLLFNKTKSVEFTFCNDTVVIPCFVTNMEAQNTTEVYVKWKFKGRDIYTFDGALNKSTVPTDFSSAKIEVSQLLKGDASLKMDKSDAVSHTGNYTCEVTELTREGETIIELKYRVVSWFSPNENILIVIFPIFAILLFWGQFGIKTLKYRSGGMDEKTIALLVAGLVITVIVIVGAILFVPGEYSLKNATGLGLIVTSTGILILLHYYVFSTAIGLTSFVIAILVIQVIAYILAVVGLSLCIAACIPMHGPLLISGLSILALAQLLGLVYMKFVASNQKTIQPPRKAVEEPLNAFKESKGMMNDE

binding [1]: binds | binding [2]: binds | binding [3]: binds | binding [4]: binds
B1: 47-R2-4 (antibody, human IgG1, kappa, V domains shown)
VH: QVQLQESGPGLVKPSETLSLTCTVSGGSLDNYYWSWIRQPPGKGLEWIGYIYYSGNTNYNPSLKSRVTISVDTSKNQFSLKLSSVTAADTAVYYCARGGRFLERYWGQGTLVTVSS
VL: EIVLTQSPSSLSASVGDRVTITCLASQTIGTWLAWYQQKPGKSPQLLIYAASTLQSGVPSRFSGSGSGTDFTLTISSLQPEDVATYYCQQYYSTPRTFGQGTKVEIKR

— patent publication US20240067728A1
